Test results: PubChem BioAssay AID2685 (National Center for Advancing Translational Sciences (NCATS), 2010)
The other results are listed elsewhere or left out. Further columns of the screen follow, without active or inactive calls. Compounds called inactive in the main read-out are mostly missing here. Potencies come from curve fits of mixed quality, noted in brackets.

Assay: qHTS Assay for Lipid Storage Modulators in Drosophila S3 Cells;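 on cell number change: cells counted by Cell Tracker Red CMTPX staining in the red channel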
Settings: BODIPY lipid droplet fluorescence, 18-24 h; for cell number change: measured here: cell count max response, cells fed with added oleic acid
Outline: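 Laser-scanning cytometry quantifies lipid droplet accumulation (500–530 nm total intensity; droplet/cell object ratio) in oleic acid-fed (400 uM added) Drosophila S3 cells treated with a concentration series. 20 uM Triacsin C defined 100% inhibition.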

[1] = measured here: lipid fluorescence (Fed channel) AC50, cells fed with added oleic acid
[2] = measured here: cell number channel AC50, cells fed with added oleic acid

Structure (SMILES)	cell number change [%]	AC50 [1]	AC50 [2]
CCCc1[nH]c(=O)c(C#N)c2c1COC(C)(C)C2	16.3	0.461 µM [falling, single point]	
CCN1C(=O)[C@@H]2[C@@H](c3ccc(-c4ccc(OC)cc4)c(OC)c3)N3CCCC[C@@]3(C(=O)OC)[C@@H]2C1=O		8.2 µM [falling, partial curve]	
COc1cccc(C2c3[nH]c4ccccc4c3CCN2Cc2cccn2-c2ncccn2)c1 (stereo unspecified)	19.2	16.4 µM [rising, single point]	
COc1ccc(-c2nnc(NC(=O)c3ccc(S(=O)(=O)N4CCCc5ccccc54)cc3)o2)cc1	-3.53	4.11 µM [falling, full curve, poor fit]	
CCOC(=O)c1c(C)[nH]c(C)c1C(=O)CSc1nnc(-c2ccncc2)n1Cc1ccccc1		0.366 µM [rising, full curve]	0.206 µM [rising, full curve]
CC(=O)c1ccc(S(=O)(=O)N(CC(=O)NC2CC2)Cc2ccc(F)cc2)cc1	-13.4	1.46 µM [falling, partial curve]	
COc1cccc(N(C(=O)CNC(=O)c2ccco2)C(C(=O)NC2CCCCC2)c2cccnc2)c1 (stereo unspecified)	-18.1	0.291 µM [falling, full curve]	
CCOc1ccccc1CN1CCN(S(C)(=O)=O)CC1	-5.9		6.51 µM [falling, single point]
CC(C)CN(C(=O)CSc1nncs1)c1c(N)n(CC(C)C)c(=O)[nH]c1=O	0.755	0.92 µM [rising, full curve, poor fit]	
COc1ccc(N(C=O)C(=S)SC)cc1	-22.6	4.11 µM [rising, single point]	2.31 µM [rising, single point]
O=C(NCCN1CCOCC1)c1ccc2c(c1)N(Cc1cccc(F)c1)C(=O)c1ccccc1S2	14.8		
CC(=O)c1cccc(NC(=O)C2CCCN(S(=O)(=O)c3cccc4cccnc34)C2)c1 (stereo unspecified)	-10.7	1.46 µM [rising, partial curve]	
CS(=O)(=O)Nc1ccc(C2=NN(S(C)(=O)=O)C(c3ccc4c(c3)OCO4)C2)cc1 (stereo unspecified)	29.3	5.8 µM [rising, partial curve]	
CC(=O)N(c1ccccc1)c1c(F)c(F)c(F)c(F)c1F	-221	25.9 µM [falling, partial curve]	29.1 µM [falling, partial curve]
Cc1noc(C)c1COC(=O)c1cccnc1SCC(=O)Nc1ccc2c(c1)OCO2	-17.7	0.00461 µM [rising, full curve, poor fit]	
CSc1ncccc1C(=O)OCc1ccc(Br)cc1	31.8		
CCNC(=O)NC(=O)C(C)Oc1ccc(Br)cc1Br (stereo unspecified)	-7.71	6.51 µM [falling, partial curve, poor fit]	
COc1ccc(N/C(N)=N/c2nc(C)cc(=O)[nH]2)cc1		20.6 µM [rising, partial curve]	
CN(C)Cc1cc(CCNC(=O)c2ccc(Cl)cc2)ccc1O	9.91	29.1 µM [rising, single point]	
Cc1[nH]c2ccc(-c3nnc(SCC(=O)c4ccccc4F)o3)cc2c1C	-23.7	1.84 µM [falling, partial curve, poor fit]	
Cc1cc(C(=O)CSc2nnc(-c3ccccc3)n2-c2ccccc2)c(C)n1-c1ncn[nH]1	42.6		13 µM [rising, partial curve, poor fit]

Structure (SMILES)	cell number change [%]	AC50 [1]	AC50 [2]
CCc1nnc(NC(=O)CSc2nc3cccnc3n2C2CCCCC2)s1	2.23	6.51 µM [rising, single point]	
O=C(c1sccc1-n1cccc1)N1CCCC1	-2.5		
COc1ccc(C(c2sc3nc(C)nn3c2O)N2CCC3(CC2)OCCO3)cc1 (stereo unspecified)	0.324	18.4 µM [rising, single point]	
Cn1c(=O)c2c(ncn2CC(=O)Nc2nc3ccc(F)cc3s2)n(C)c1=O	31.7		
Cc1ccccc1NC(=O)Nc1cc(-c2ccccc2)nn1C	-20.3	1.46 µM [falling, full curve]	
Cc1ccc(CC(=O)N/N=C/c2ccc3c(c2)OCO3)cc1	11.1	7.31 µM [rising, partial curve]	
Cc1ccc(NC(=S)C2=C(O)c3ccccc3N(C)S2(=O)=O)cc1	-38.7	18.4 µM [falling, single point]	14.6 µM [falling, single point]
CCOC(=O)c1c(NC(=S)Nc2ccc(OC)cc2)sc2c1CCCCC2	-6.74	9.2 µM [rising, partial curve]	
Cc1ccccc1CC1SC(N)=NC1=O (stereo unspecified)	15.5		
COc1ccc(OCC(=O)Nc2ccc(C)c(S(=O)(=O)N(C)C)c2)cc1	12	29.1 µM [falling, partial curve, poor fit]	
CN(C(=O)c1ccc2c(=O)n3c(nc2c1)CCCCC3)c1ccccc1Cl	8.02		
COc1ccc(/C=C/C(=O)c2ccc[nH]2)cc1OC	2.85	0.461 µM [rising, single point]	
COCCCNC(=O)c1c[nH]c2ccc(S(=O)(=O)N(C)c3ccccc3C)cc2c1=O	-29.5	29.1 µM [falling, single point]	
CCC1(C)NC(=O)N(CC(=O)N2CCC(Cc3ccccc3)CC2)C1=O (stereo unspecified)	36.3	0.82 µM [falling, partial curve]	25.9 µM [rising, single point]
CC(C)CCNC(=S)NC1CCCC1		29.1 µM [rising, single point]	
O=C1CSCN1c1cc(Cl)ccc1Cl	18.2		3.66 µM [falling, partial curve]
COc1ccc(Cl)cc1Nc1ncnc2sc(C)c(S(=O)(=O)N3CCC(C)CC3)c12	-2.36	36.6 µM [rising, partial curve, poor fit]	
COc1ccc(C(=O)COC(=O)CSCc2c(C)noc2C)cc1OC	-1.75		
CCOC(=O)c1cc2c(ccn2C)n1CC(=O)N(Cc1ccccc1)c1ccc(F)cc1	-14	29.1 µM [falling, single point]	
Cc1nc(NCc2ccccc2)c2cc[nH]c2n1	-13.3	0.259 µM [rising, full curve]	
Cc1ccc(NC(=O)c2cccc(S(=O)(=O)N(C)C3CCCCC3)c2)nc1		0.651 µM [rising, single point]	

Structure (SMILES)	cell number change [%]	AC50 [1]	AC50 [2]
CC(/C=C/c1ccccc1)=N\Nc1nc(C)cc(C)n1	35.4	0.731 µM [rising, full curve]	0.82 µM [rising, full curve, poor fit]
COc1ccc([C@]23Cc4cc(OC)c(OC)cc4C(O2)c2c(c4ccccc4oc2=O)O3)cc1	2.33		
O=C1CCCN1CN(C(=O)c1ccccc1)c1ccccc1	-15.4		
COc1ccc(NC(=S)N2CCC(c3ccccc3)C2)cc1 (stereo unspecified)	39.8	11.6 µM [rising, partial curve]	
Cc1ccc2oc(=O)n(CC(=O)OC(C)C)c2c1	2.46		2.31 µM [rising, partial curve]
CC(C)c1ccc(Nc2nnc(SCC(=O)Nc3ncc(S(=O)(=O)c4ccc([N+](=O)[O-])cc4)s3)s2)cc1	50.6		0.184 µM [rising, full curve]
COc1ccc(NC(=O)c2c(Nc3ccccc3)sc(C(=O)c3ccc(F)cc3)c2N)cc1	-40.7	20.6 µM [falling, single point]	16.4 µM [falling, single point]
O=C(CSc1cccc(C(F)(F)F)c1)NC(=O)NCc1ccco1	-12.8	0.461 µM [rising, single point]	
O=C(CNC(=O)c1ccc(Br)o1)Nc1ccccc1	7.72		
COCCn1c(SCC(=O)Nc2ccccc2OC)nc2ccccc21	42.2	5.8 µM [rising, partial curve]	29.1 µM [rising, single point]
O=C(c1cccc(S(=O)(=O)N2CCCC2)c1)N1CCN(c2ccccc2F)CC1	14.2		
O=C1CSC(c2cn(-c3ccccc3)nc2-c2cccs2)N1Cc1ccccc1 (stereo unspecified)	109	20.6 µM [rising, partial curve]	23.1 µM [rising, single point]
O=C(Nc1cccc2c1C(=O)NC2=O)c1cccnc1Cl	26.9		
Cc1ccc(S(=O)(=O)CCC(=O)OCC(=O)NC(=O)c2ccccc2)cc1	-23	29.1 µM [falling, single point]	
COCCNC(=O)C(c1ccc(C)cc1)N(Cc1ccco1)C(=O)CCC(=O)Nc1ccccn1 (stereo unspecified)	22.7	6.51 µM [rising, single point]	
COc1ccc(C[C@H]2CN3C(=NC[C@@H]3Cc3ccccc3)N2CCNC(=O)c2ccc(C)c(Br)c2)cc1	-66.3		29.1 µM [falling, single point]
N#CCC(=O)N/N=C/c1ccc(N2N=C(c3ccccc3)CC2c2ccccc2)cc1 (stereo unspecified)	263	14.6 µM [falling, partial curve]	13 µM [rising, partial curve]
O=C(COC(=O)c1cccc(O)c1)NC(=O)Cc1ccccc1	-10.3	0.259 µM [falling, full curve, poor fit]	
Cc1nn(-c2ccccc2)c(C)c1C(=O)NCCc1ccccc1	3.95		
NC(=O)[C@@H]1CCNc2c(I)cc([N+](=O)[O-])cc2C(=O)N[C@@H](CO)C(=O)N[C@@H](Cc2ccc(O)cc2)C(=O)N1	4.87	0.92 µM [rising, full curve, poor fit]	

Reformatted with each value named: 3 of the compounds above
CCOC(=O)c1cc2c(ccn2C)n1CC(=O)N(Cc1ccccc1)c1ccc(F)cc1
  cell number change [%]: -14; AC50 [1]: 29.1 µM [falling, single point]
Cc1nc(NCc2ccccc2)c2cc[nH]c2n1
  cell number change [%]: -13.3; AC50 [1]: 0.259 µM [rising, full curve]
Cc1ccc(NC(=O)c2cccc(S(=O)(=O)N(C)C3CCCCC3)c2)nc1
  AC50 [1]: 0.651 µM [rising, single point]
